From article PMC11233601
No constants are given. Whether binding was seen depends on the method and setting. In cells and extracts the contact can be indirect. Some binding calls cover weakened binding; strength is not graded here. For some assays here: Sequences can lack the tags named with a protein.

Legend:
[1] = target: T1, murine FLAG-FAM122A H83A Q84A (murine) (UniProt Q9DB52); test: co-IP; HEK293T transfected with FLAG-mFAM122A WT and helix tolerant and breaker mutants; anti-FLAG IPs analysed for endogenous B55α by western blot
T1 sequence: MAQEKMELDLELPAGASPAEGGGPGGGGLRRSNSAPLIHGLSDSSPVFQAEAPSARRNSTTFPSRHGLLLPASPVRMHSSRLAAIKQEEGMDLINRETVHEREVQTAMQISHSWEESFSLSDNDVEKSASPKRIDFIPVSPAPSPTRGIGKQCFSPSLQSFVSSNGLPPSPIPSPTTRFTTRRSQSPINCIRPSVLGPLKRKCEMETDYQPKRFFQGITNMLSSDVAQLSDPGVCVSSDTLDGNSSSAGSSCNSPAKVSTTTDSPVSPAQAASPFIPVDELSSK

[2] = target: T2, murine FLAG-FAM122A H83G Q84G (murine) (UniProt Q9DB52); test: as above
T2 sequence: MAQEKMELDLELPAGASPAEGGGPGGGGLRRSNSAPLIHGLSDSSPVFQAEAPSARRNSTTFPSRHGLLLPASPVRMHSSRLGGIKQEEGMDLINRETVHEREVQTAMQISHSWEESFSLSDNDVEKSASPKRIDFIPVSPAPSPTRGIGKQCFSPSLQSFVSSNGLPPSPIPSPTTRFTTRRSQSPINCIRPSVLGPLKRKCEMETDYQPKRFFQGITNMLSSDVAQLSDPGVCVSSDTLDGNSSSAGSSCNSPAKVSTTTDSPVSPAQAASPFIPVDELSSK

[3] = target: T3, murine FLAG-FAM122A H83P Q84P (murine) (UniProt Q9DB52); test: as above
T3 sequence: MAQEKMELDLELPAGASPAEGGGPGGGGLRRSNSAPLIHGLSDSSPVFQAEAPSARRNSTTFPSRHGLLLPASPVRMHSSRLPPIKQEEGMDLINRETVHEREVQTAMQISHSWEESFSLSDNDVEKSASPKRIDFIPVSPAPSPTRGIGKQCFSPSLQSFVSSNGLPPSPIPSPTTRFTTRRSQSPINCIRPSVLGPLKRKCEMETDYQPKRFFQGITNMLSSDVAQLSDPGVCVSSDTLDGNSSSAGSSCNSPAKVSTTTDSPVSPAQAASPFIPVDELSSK

[4] = target: murine FLAG-FAM122A wild type (murine) (UniProt Q9DB52); test: as above
[5] = target: T4, FAM122A_(L70-K86) peptide fused to GST (murine) (UniProt Q9DB52); test: pull-down; GST-FAM122A, deletion and mutant constructs (or GST-p107-R1R2) on glutathione beads incubated with HEK293T lysates 3 h or overnight at 4 °C, 4 washes with DIP lysis buffer, western blot; only the target purified
T4 sequence: LPASPVRMHSSRLHQIK

[6] = target: GST-FAM122A full length (murine) (UniProt Q9DB52); test: as above
GST-p107-R1R2 (human) [7] = target: T5, GST-p107-R1R2 (human) (UniProt P28749); test: as above
T5 sequence: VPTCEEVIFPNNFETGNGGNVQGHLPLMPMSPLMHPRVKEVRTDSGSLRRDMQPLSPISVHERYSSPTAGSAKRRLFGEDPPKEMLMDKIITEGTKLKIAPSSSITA

GST-p107-R1R2 (human) [8] = target: T5, GST-p107-R1R2 (human); test: affinity by depletion (GST pull-down, B55α left in the supernatant); selected concentrations of GST-fusion proteins on beads with 100 µg HEK293T lysate in 100 µl overnight; supernatant blotted for B55α and GAPDH; approximate affinity at equilibrium; only the target purified

binding [5]: no binding
binding [6]: binds
binding (GST-p107-R1R2 (human) [7]): binds
binding (GST-p107-R1R2 (human) [8]): binds
B1: B55α, endogenous in HEK293T lysate (protein, UniProt P63151 1-447)
chain: MAGAGGGNDIQWCFSQVKGAVDDDVAEADIISTVEFNHSGELLATGDKGGRVVIFQQEQENKIQSHSRGEYNVYSTFQSHEPEFDYLKSLEIEEKINKIRWLPQKNAAQFLLSTNDKTIKLWKISERDKRPEGYNLKEEDGRYRDPTTVTTLRVPVFRPMDLMVEASPRRIFANAHTYHINSISINSDYETYLSADDLRINLWHLEITDRSFNIVDIKPANMEELTEVITAAEFHPNSCNTFVYSSSKGTIRLCDMRASALCDRHSKLFEEPEDPSNRSFFSEIISSISDVKFSHSGRYMMTRDYLSVKIWDLNMENRPVETYQVHEYLRSKLCSLYENDCIFDKFECCWNGSDSVVMTGSYNNFFRMFDRNTKRDITLEASRENNKPRTVLKPRKVCASGKRKKDEISVDSLDFNKKILHTAWHPKENIIAVATTNNLYIFQDKVN
binding [1]: binds
binding [2]: no binding
binding [3]: no binding
binding [4]: binds
